For 8 molecules, binding results are on record in PMC4691244.

No constants are given. Whether binding was seen depends on the method and setting. In cells and extracts the contact can be indirect. Some results given as binding are weak or reduced against the parent protein; the word gives no strength. Where a sequence is shown, tags or fusion partners need not be part of it.

First the molecules themselves.
B1: V5-tagged wild-type DGCR8 (protein, UniProt Q8WYQ5 1-773)
chain: METDESPSPLPCGPAGEAVMESRARPFQALPREQSPPPPLQTSSGAEVMDVGSGGDGQSELPAEDPFNFYGASLLSKGSFSKGRLLIDPNCSGHSPRTARHAPAVRKFSPDLKLLKDVKISVSFTESCRSKDRKVLYTGAERDVRAECGLLLSPVSGDVHACPFGGSVGDGVGIGGESADKKDEENELDQEKRVEYAVLDELEDFTDNLELDEEGAGGFTAKAIVQRDRVDEEALNFPYEDDFDNDVDALLEEGLCAPKKRRTEEKYGGDSDHPSDGETSVQPMMTKIKTVLKSRGRPPTEPLPDGWIMTFHNSGVPVYLHRESRVVTWSRPYFLGTGSIRKHDPPLSSIPCLHYKKMKDNEEREQSSDLTPSGDVSPVKPLSRSAELEFPLDEPDSMGADPGPPDEKDPLGAEAAPGALGQVKAKVEVCKDESVDLEEFRSYLEKRFDFEQVTVKKFRTWAERRQFNREMKRKQAESERPILPANQKLITLSVQDAPTKKEFVINPNGKSEVCILHEYMQRVLKVRPVYNFFECENPSEPFGASVTIDGVTYGSGTASSKKLAKNKAARATLEILIPDFVKQTSEEKPKDSEELEYFNHISIEDSRVYELTSKAGLLSPYQILHECLKRNHGMGDTSIKFEVVPGKNQKSEYVMACGKHTVRGWCKNKRVGKQLASQKILQLLHPHVKNWGSLLRMYGRESSKMVKQETSDKSVIELQQYAKKNKPNLHILSKLQEEMKRLAEEREETRKKPKMSIVASAQPGGEPLCTVDV
B2: V5-tagged DGCR8 484-736 (domain or fragment, UniProt Q8WYQ5 484-736)
chain: PANQKLITLSVQDAPTKKEFVINPNGKSEVCILHEYMQRVLKVRPVYNFFECENPSEPFGASVTIDGVTYGSGTASSKKLAKNKAARATLEILIPDFVKQTSEEKPKDSEELEYFNHISIEDSRVYELTSKAGLLSPYQILHECLKRNHGMGDTSIKFEVVPGKNQKSEYVMACGKHTVRGWCKNKRVGKQLASQKILQLLHPHVKNWGSLLRMYGRESSKMVKQETSDKSVIELQQYAKKNKPNLHILSKLQ
B3: V5-tagged DGCR8 1-692 (domain or fragment, UniProt Q8WYQ5 1-692)
chain: METDESPSPLPCGPAGEAVMESRARPFQALPREQSPPPPLQTSSGAEVMDVGSGGDGQSELPAEDPFNFYGASLLSKGSFSKGRLLIDPNCSGHSPRTARHAPAVRKFSPDLKLLKDVKISVSFTESCRSKDRKVLYTGAERDVRAECGLLLSPVSGDVHACPFGGSVGDGVGIGGESADKKDEENELDQEKRVEYAVLDELEDFTDNLELDEEGAGGFTAKAIVQRDRVDEEALNFPYEDDFDNDVDALLEEGLCAPKKRRTEEKYGGDSDHPSDGETSVQPMMTKIKTVLKSRGRPPTEPLPDGWIMTFHNSGVPVYLHRESRVVTWSRPYFLGTGSIRKHDPPLSSIPCLHYKKMKDNEEREQSSDLTPSGDVSPVKPLSRSAELEFPLDEPDSMGADPGPPDEKDPLGAEAAPGALGQVKAKVEVCKDESVDLEEFRSYLEKRFDFEQVTVKKFRTWAERRQFNREMKRKQAESERPILPANQKLITLSVQDAPTKKEFVINPNGKSEVCILHEYMQRVLKVRPVYNFFECENPSEPFGASVTIDGVTYGSGTASSKKLAKNKAARATLEILIPDFVKQTSEEKPKDSEELEYFNHISIEDSRVYELTSKAGLLSPYQILHECLKRNHGMGDTSIKFEVVPGKNQKSEYVMACGKHTVRGWCKNKRVGKQLASQKILQLLHPHVKNWG
B4: V5-tagged DGCR8 276-773 (domain or fragment, UniProt Q8WYQ5 276-773)
chain: DGETSVQPMMTKIKTVLKSRGRPPTEPLPDGWIMTFHNSGVPVYLHRESRVVTWSRPYFLGTGSIRKHDPPLSSIPCLHYKKMKDNEEREQSSDLTPSGDVSPVKPLSRSAELEFPLDEPDSMGADPGPPDEKDPLGAEAAPGALGQVKAKVEVCKDESVDLEEFRSYLEKRFDFEQVTVKKFRTWAERRQFNREMKRKQAESERPILPANQKLITLSVQDAPTKKEFVINPNGKSEVCILHEYMQRVLKVRPVYNFFECENPSEPFGASVTIDGVTYGSGTASSKKLAKNKAARATLEILIPDFVKQTSEEKPKDSEELEYFNHISIEDSRVYELTSKAGLLSPYQILHECLKRNHGMGDTSIKFEVVPGKNQKSEYVMACGKHTVRGWCKNKRVGKQLASQKILQLLHPHVKNWGSLLRMYGRESSKMVKQETSDKSVIELQQYAKKNKPNLHILSKLQEEMKRLAEEREETRKKPKMSIVASAQPGGEPLCTVDV
B5: V5-tagged DGCR8 484-773 (domain or fragment, UniProt Q8WYQ5 484-773)
chain: PANQKLITLSVQDAPTKKEFVINPNGKSEVCILHEYMQRVLKVRPVYNFFECENPSEPFGASVTIDGVTYGSGTASSKKLAKNKAARATLEILIPDFVKQTSEEKPKDSEELEYFNHISIEDSRVYELTSKAGLLSPYQILHECLKRNHGMGDTSIKFEVVPGKNQKSEYVMACGKHTVRGWCKNKRVGKQLASQKILQLLHPHVKNWGSLLRMYGRESSKMVKQETSDKSVIELQQYAKKNKPNLHILSKLQEEMKRLAEEREETRKKPKMSIVASAQPGGEPLCTVDV
B6: V5-tagged DGCR8 484-750 (domain or fragment, UniProt Q8WYQ5 484-750)
chain: PANQKLITLSVQDAPTKKEFVINPNGKSEVCILHEYMQRVLKVRPVYNFFECENPSEPFGASVTIDGVTYGSGTASSKKLAKNKAARATLEILIPDFVKQTSEEKPKDSEELEYFNHISIEDSRVYELTSKAGLLSPYQILHECLKRNHGMGDTSIKFEVVPGKNQKSEYVMACGKHTVRGWCKNKRVGKQLASQKILQLLHPHVKNWGSLLRMYGRESSKMVKQETSDKSVIELQQYAKKNKPNLHILSKLQEEMKRLAEEREETR
B7: Fibrillarin (protein, UniProt P22087 1-321)
chain: MKPGFSPRGGGFGGRGGFGDRGGRGGRGGFGGGRGRGGGFRGRGRGGGGGGGGGGGGGRGGGGFHSGGNRGRGRGGKRGNQSGKNVMVEPHRHEGVFICRGKEDALVTKNLVPGESVYGEKRVSISEGDDKIEYRAWNPFRSKLAAAILGGVDQIHIKPGAKVLYLGAASGTTVSHVSDIVGPDGLVYAVEFSHRSGRDLINLAKKRTNIIPVIEDARHPHKYRMLIAMVDVIFADVAQPDQTRIVALNAHTFLRNGGHFVISIKANCIDSTASAEAVFASEVKKMQQENMKPQEQLTLEPYERDHAVVVGVYRPPPKVKN
B8: dyskerin (protein, UniProt O60832 1-514)
chain: MADAEVIILPKKHKKKKERKSLPEEDVAEIQHAEEFLIKPESKVAKLDTSQWPLLLKNFDKLNVRTTHYTPLACGSNPLKREIGDYIRTGFINLDKPSNPSSHEVVAWIRRILRVEKTGHSGTLDPKVTGCLIVCIERATRLVKSQQSAGKEYVGIVRLHNAIEGGTQLSRALETLTGALFQRPPLIAAVKRQLRVRTIYESKMIEYDPERRLGIFWVSCEAGTYIRTLCVHLGLLLGVGGQMQELRRVRSGVMSEKDHMVTMHDVLDAQWLYDNHKDESYLRRVVYPLEKLLTSHKRLVMKDSAVNAICYGAKIMLPGVLRYEDGIEVNQEIVVITTKGEAICMAIALMTTAVISTCDHGIVAKIKRVIMERDTYPRKWGLGPKASQKKLMIKQGLLDKHGKPTDSTPATWKQEYVDYSESAKKEVVAEVVKAPQVVAEAAKTAKRKRESESESDETPPAAPQLIKKEKKKSKKDKKAKAGLESGAEPGDGDSDTTKKKKKKKKAKEVELVSE

The first assay deals with T1, hRRP6 (human (endogenous in HEK293T)) (UniProt Q01780).
T1 sequence: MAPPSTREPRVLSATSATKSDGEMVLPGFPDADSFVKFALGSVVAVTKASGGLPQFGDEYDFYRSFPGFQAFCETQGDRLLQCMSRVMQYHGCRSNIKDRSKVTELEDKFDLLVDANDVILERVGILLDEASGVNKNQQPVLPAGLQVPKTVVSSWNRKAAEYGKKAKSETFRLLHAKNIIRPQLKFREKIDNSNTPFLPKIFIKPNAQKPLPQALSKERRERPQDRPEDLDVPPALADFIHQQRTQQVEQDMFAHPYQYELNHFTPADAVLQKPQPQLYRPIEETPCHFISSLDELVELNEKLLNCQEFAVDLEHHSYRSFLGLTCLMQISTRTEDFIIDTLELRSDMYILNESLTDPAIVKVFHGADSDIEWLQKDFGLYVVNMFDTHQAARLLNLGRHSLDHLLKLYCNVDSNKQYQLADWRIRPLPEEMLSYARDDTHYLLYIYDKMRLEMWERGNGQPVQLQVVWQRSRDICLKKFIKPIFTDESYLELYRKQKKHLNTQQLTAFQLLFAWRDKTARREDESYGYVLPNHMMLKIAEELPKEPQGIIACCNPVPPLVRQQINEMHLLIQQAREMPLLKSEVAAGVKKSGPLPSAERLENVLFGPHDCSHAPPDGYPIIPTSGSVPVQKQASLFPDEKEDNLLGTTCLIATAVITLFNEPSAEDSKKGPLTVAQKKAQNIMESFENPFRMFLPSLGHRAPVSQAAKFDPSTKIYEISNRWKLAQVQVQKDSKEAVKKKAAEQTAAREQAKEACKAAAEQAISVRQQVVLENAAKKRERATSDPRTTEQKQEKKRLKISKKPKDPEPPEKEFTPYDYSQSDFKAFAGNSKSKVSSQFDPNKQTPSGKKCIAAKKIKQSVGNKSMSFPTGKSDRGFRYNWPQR
Put plainly: co-IP; HEK293T cells transfected with V5-tagged DGCR8 or truncations; immunoprecipitation of endogenous hRRP6, western blot with anti-V5. Background: Immunoblotting shows a protein as a band on a membrane.
Take B1: the binding entry is “binds”. The same measure, in the same setting: the result for B2 reads “binds weakly”; that for B3, “binds”.

Turning to B4, the binding result is “binds weakly”. Same read-out and setting: with B5 the entry was “binds weakly”; with B6, “binds weakly”.

Another assay addresses T2, FLAG-Drosha (UniProt Q9NRR4).
T2 sequence: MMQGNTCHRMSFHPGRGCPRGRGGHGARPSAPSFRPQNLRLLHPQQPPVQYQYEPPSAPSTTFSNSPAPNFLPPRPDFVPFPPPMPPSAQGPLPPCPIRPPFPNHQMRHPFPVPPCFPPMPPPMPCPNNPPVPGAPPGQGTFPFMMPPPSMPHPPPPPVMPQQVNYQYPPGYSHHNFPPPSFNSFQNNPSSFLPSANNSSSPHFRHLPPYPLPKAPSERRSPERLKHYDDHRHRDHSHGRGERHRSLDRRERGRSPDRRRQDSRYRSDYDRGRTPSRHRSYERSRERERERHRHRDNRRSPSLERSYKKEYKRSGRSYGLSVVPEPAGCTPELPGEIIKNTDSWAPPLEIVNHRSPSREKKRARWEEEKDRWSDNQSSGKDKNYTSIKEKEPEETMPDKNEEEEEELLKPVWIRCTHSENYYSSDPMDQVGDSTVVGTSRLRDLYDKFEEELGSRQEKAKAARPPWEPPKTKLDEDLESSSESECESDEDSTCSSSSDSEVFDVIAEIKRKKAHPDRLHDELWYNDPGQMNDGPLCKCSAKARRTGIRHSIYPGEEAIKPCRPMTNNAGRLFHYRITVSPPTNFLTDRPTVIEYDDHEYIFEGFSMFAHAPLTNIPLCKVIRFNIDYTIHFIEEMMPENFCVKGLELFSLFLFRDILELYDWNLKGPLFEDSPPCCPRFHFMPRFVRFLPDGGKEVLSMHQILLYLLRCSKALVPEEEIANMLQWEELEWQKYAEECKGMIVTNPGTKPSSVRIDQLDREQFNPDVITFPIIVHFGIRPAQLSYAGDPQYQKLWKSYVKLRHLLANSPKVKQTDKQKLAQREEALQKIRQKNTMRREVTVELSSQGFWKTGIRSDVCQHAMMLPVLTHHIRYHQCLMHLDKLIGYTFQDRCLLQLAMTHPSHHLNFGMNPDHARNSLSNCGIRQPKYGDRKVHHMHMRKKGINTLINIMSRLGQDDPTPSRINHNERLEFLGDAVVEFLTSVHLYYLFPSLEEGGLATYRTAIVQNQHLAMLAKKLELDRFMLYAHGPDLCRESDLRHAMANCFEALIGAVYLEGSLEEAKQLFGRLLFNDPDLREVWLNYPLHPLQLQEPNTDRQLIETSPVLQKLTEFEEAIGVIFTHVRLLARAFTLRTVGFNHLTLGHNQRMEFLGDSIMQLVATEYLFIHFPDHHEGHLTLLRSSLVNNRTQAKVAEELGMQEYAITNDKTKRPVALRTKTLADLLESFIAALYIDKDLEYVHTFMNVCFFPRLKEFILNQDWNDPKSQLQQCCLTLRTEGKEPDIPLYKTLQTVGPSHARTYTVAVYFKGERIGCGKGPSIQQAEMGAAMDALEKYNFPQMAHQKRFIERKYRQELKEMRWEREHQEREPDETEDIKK
Put plainly: co-IP; anti-T7 or anti-FLAG immunoprecipitation of overexpressed T7-DGCR8, FLAG-DGCR8, FLAG-Drosha (and T7-DGCR8 dRBD1&2 mut) from transfected HEK293T cells; western blot of endogenous partners; in the presence or absence of RNase A (Figure 1C).
As to B7, the binding result is given as “no binding”. Same read-out and setting: with B8 the entry was “no binding”.
